Test results reported in the supplement of paper PMC4604168 (melanoma cell lines).
This is one part of the list. Repeats are few or missing, and single values can be far off.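 Cells were imaged in 1,536-well plates, and nuclei stained with an antibody against cleaved PARP were counted against all DNA-stained nuclei to give the apoptosis fraction. Screening doses were chosen to leave most cells alive, and resting and induced cleaved-PARP levels differ strongly between cell lines.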

Columns and labels:
Experiment in all cases: cleaved PARP positive nuclei fraction relative to DMSO control; melanoma cells; higher = more apoptosis
Conditions in all cases: library dose: low library concentration; 72 h
[1] = test system: COLO792
[2] = test system: COLO800
[3] = test system: COLO829
[4] = test system: G361
[5] = test system: IPC-298
[6] = test system: IST-MEL1
[7] = test system: LB2518-MEL
[8] = test system: LOXIMVI

Row | SMILES | cleaved PARP positive nuclei fraction [1] | cleaved PARP positive nuclei fraction [2] | cleaved PARP positive nuclei fraction [3] | cleaved PARP positive nuclei fraction [4] | cleaved PARP positive nuclei fraction [5] | cleaved PARP positive nuclei fraction [6] | cleaved PARP positive nuclei fraction [7] | cleaved PARP positive nuclei fraction [8]
1 | COc1ccc(C2=N[C@@H](c3ccc(Cl)cc3)[C@@H](c3ccc(Cl)cc3)N2C(=O)N2CCNC(=O)C2)c(OC(C)C)c1 [Nutlin-3] + CCN(CC)CCCCNc1ncc2cc(-c3cc(OC)cc(OC)c3)c(NC(=O)NC(C)(C)C)nc2n1 [PD173074] (first compound 0.1 µM, partner dose 0.1 µM) | 126% | 125% | 25.5% | 78.1% | 75.6% | 20.9% | 86.4% | 377%
2 | CC(=O)O[C@@]12CO[C@@H]1C[C@H](O)[C@@]1(C)C(=O)[C@H](O)C3=C(C)[C@@H](OC(=O)[C@H](O)[C@@H](NC(=O)OC(C)(C)C)c4ccccc4)C[C@@](O)([C@@H](OC(=O)c4ccccc4)[C@H]21)C3(C)C [Docetaxel] + O=C1NC(=O)/C(=C/c2ccc(-c3ccc(F)cc3O)o2)S1 [AS252424] (first compound 0.0001 µM, partner dose 1 µM) | 597% | 124% | 335% | 1260% | 358% | 96.6% | 136% | 101%
3 | CCCCCCCCc1ccc(CCC(N)(CO)CO)cc1 [fingolimod] + Cn1cc(/C=C2\C(=O)Nc3cccnc32)c2ccccc21 [GW441756] (first compound 2 µM, partner dose 0.4 µM) | 157% | 135% | 90% | 157% | 60.8% | 104% | 69.2% | 60.1%
4 | CN(c1ncccc1CNc1nc(Nc2ccc3c(c2)CC(=O)N3)ncc1C(F)(F)F)S(C)(=O)=O + COc1ccc(COc2ccc(Cc3cnc(N)nc3N)cc2OC)cc1 [GW2580] (first compound 0.08 µM, partner dose 1 µM) | 101% | 300% | 66.1% | 93% | 101% | 662% | 60.7% | 91.9%
5 | CN(c1ncccc1CNc1nc(Nc2ccc3c(c2)CC(=O)N3)ncc1C(F)(F)F)S(C)(=O)=O + COc1ccc(-c2ccc3c(N4CCOCC4)nc(N4C[C@@H](C)O[C@@H](C)C4)nc3n2)cc1CO [KU0063794] (first compound 0.08 µM, partner dose 0.02 µM) | 140% | 23.7% | 223% | 165% | 100% | 123% | 80.6% | 86.7%
6 | COc1ccc(C2=N[C@@H](c3ccc(Cl)cc3)[C@@H](c3ccc(Cl)cc3)N2C(=O)N2CCNC(=O)C2)c(OC(C)C)c1 [Nutlin-3] + c1cc(-c2cnn3cc(-c4ccc(OCCN5CCCCC5)cc4)cnc23)ccn1 [Dorsomorphin] (first compound 0.1 µM, partner dose 0.4 µM) | 97% | 39.8% | 80% | 169% | 64.1% | 59.9% | 46.1% | 166%
7 | COc1ccc(C2=N[C@@H](c3ccc(Cl)cc3)[C@@H](c3ccc(Cl)cc3)N2C(=O)N2CCNC(=O)C2)c(OC(C)C)c1 [Nutlin-3] + O=S(=O)(c1ccccc1)N(CC(F)(F)F)c1ccc(C(O)(C(F)(F)F)C(F)(F)F)cc1 [T0901317] (first compound 0.1 µM, partner dose 1.4 µM) | 78% | 93% | 190% | 101% | 211% | 40.5% | 83.1% | 84.1%
8 | CC1(C)CCC(c2ccc(Cl)cc2)=C(CN2CCN(c3ccc(C(=O)NS(=O)(=O)c4ccc(N[C@H](CCN5CCOCC5)CSc5ccccc5)c(S(=O)(=O)C(F)(F)F)c4)cc3)CC2)C1 + O=c1cc(-c2cccc3c2Sc2ccccc2S3)oc(N2CCOCC2)c1 [KU55933] (first compound 0.4 µM, partner dose 1 µM) | 446% | 226% | 101% | 170% | 63% | 104% | 64.8% | 53.5%
9 | NC(=O)c1ccc(N(C(N)=O)c2c(F)cccc2F)nc1-c1ccc(F)cc1F + COc1cc2ncnc(Nc3ccc(Oc4ccccc4)cc3)c2cc1OC [SrcI1] (first compound 0.4 µM, partner dose 2 µM) | 112% | 53.9% | 53.9% | 79.7% | 72% | 92% | 50.6% | 37.2%
10 | NC1(c2ccc(-c3nc4ccn5c(=O)[nH]nc5c4cc3-c3ccccc3)cc2)CCC1 + c1cc(-c2cnn3cc(-c4ccc(OCCN5CCCCC5)cc4)cnc23)ccn1 [Dorsomorphin] (first compound 0.4 µM, partner dose 0.4 µM) | 194% | 50.6% | 55.1% | 97.5% | 49.1% | 77.6% | 83% | 219%
11 | NC1(c2ccc(-c3nc4ccn5c(=O)[nH]nc5c4cc3-c3ccccc3)cc2)CCC1 + O=C1NC(=O)/C(=C/c2ccc(-c3ccc(F)cc3O)o2)S1 [AS252424] (first compound 0.4 µM, partner dose 1 µM) | 165% | 45.3% | 102% | 106% | 24.2% | 112% | 60.3% | 90.2%
12 | NC(=O)c1ccc(N(C(N)=O)c2c(F)cccc2F)nc1-c1ccc(F)cc1F + N#Cc1c(O)c2c(-c3ccc(-c4ccccc4O)cc3)csc2[nH]c1=O [A769662] (first compound 0.4 µM, partner dose 2 µM) | 105% | 110% | 68.8% | 110% | 113% | 75.3% | 153% | 125%
13 | Cn1sc(=O)n(Cc2ccccc2)c1=O + CCCCCCCCCCCC1=C(O)C(=O)C=C(O)C1=O [Embelin] (first compound 0.4 µM, partner dose 1.2 µM) | 78.1% | 127% | 109% | 67.8% | 42.5% | 140% | 38.6% | 156%
14 | CCN(CC)CCNC(=O)c1c(C)[nH]c(/C=C2\C(=O)Nc3ccc(F)cc32)c1C [sunitinib] + CCCCCCCCCCCC1=C(O)C(=O)C=C(O)C1=O [Embelin] (first compound 0.4 µM, partner dose 1.2 µM) | 66.1% | 90.4% | 38.8% | 63.1% | 141% | 88.3% | 29.3% | 194%
15 | CS(=O)(=O)c1ccc(C(=O)Nc2ccc(Cl)c(-c3ccccn3)c2)c(Cl)c1 [vismodegib] + COc1ccc(COc2ccc(Cc3cnc(N)nc3N)cc2OC)cc1 [GW2580] (first compound 1 µM, partner dose 1 µM) | 271% | 49.3% | 114% | 97.1% | 45.5% | 240% | 61.7% | 47.6%
16 | CS(=O)(=O)c1ccc(C(=O)Nc2ccc(Cl)c(-c3ccccn3)c2)c(Cl)c1 [vismodegib] + CCN(CC)CCCCNc1ncc2cc(-c3cc(OC)cc(OC)c3)c(NC(=O)NC(C)(C)C)nc2n1 [PD173074] (first compound 1 µM, partner dose 0.1 µM) | 26.8% | 223% | 171% | 96.8% | 124% | 56.7% | 61.4% | 161%
17 | C[C@]1(O)C[C@@H](c2nc(-c3ccc4ccc(-c5ccccc5)nc4c3)c3c(N)nccn32)C1 + CC(C)CCN1c2nc(Nc3cc(F)c(O)c(F)c3)ncc2N(C)C(=O)C1C [BID1870] (first compound 0.4 µM, partner dose 0.2 µM) | 181% | 144% | 87.8% | 102% | 35.1% | 103% | 38.4% | 57.9%
